{"source": "PubChem BioAssay AID1508597 (Cure First, 2020)", "screen": "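Survival screen with siRNA in ovarian cancer cells derived from patients, with or without rucaparib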 (primary screen)", "cells": "human ovarian carcinoma lines grown from tumours: OCI-P5x (papillary serous) and OCI-C5x (clear cell)", "reagent": "siRNA pool against human genes, 1.25 pmol siRNA per well", "timing": "72 h or 96 h, depending on the cell culture", "treatment": "rucaparib 20 µM (about IC30) or vehicle, present until read-out", "rucaparib or vehicle": "Rucaparib", "cell line": "OCI-P5x (serous)", "measurement": "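Luminescent ATP-based viability assay read 72 or 96 h after transfection, depending on culture, given as normalised percent viability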", "direction": "viability, normalised: higher = more viable cells remaining", "rule for the call": "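a well counts as a hit if its normalised viability is under 80 percent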", "meaning of the calls": "active = viability under 80%; inactive = viability 80% or more", "note": "This is a random part of the about 2,100 reagents, under one of the conditions tested. 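Calls flag viability under 80% in either arm, not effects specific to rucaparib; the reference for percent is not stated.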 A reagent listed more than once was tested more than once; the source does not tell the runs apart. Not given: the 100% reference."}
{"gene": "HIRA (histone cell cycle regulator)", "technical replicate": "1", "viability, normalised (%)": 63.4, "outcome": "active"}
{"gene": "HIRA (histone cell cycle regulator)", "technical replicate": "2", "viability, normalised (%)": 58.4, "outcome": "active"}
{"gene": "HIRA (histone cell cycle regulator)", "technical replicate": "3", "viability, normalised (%)": 65.9, "outcome": "active"}
{"gene": "NAGK (N-acetylglucosamine kinase)", "technical replicate": "1", "viability, normalised (%)": 98.7, "outcome": "inactive"}
{"gene": "NAGK (N-acetylglucosamine kinase)", "technical replicate": "2", "viability, normalised (%)": 89.5, "outcome": "inactive"}
{"gene": "NAGK (N-acetylglucosamine kinase)", "technical replicate": "3", "viability, normalised (%)": 84.2, "outcome": "inactive"}
{"gene": "GTF2H4 (general transcription factor IIH subunit 4)", "technical replicate": "1", "viability, normalised (%)": 55.4, "outcome": "active"}
{"gene": "GTF2H4 (general transcription factor IIH subunit 4)", "technical replicate": "1", "viability, normalised (%)": 59.2, "outcome": "active"}
{"gene": "GTF2H4 (general transcription factor IIH subunit 4)", "technical replicate": "2", "viability, normalised (%)": 81.4, "outcome": "inactive"}
{"gene": "GTF2H4 (general transcription factor IIH subunit 4)", "technical replicate": "2", "viability, normalised (%)": 53.2, "outcome": "active"}
{"gene": "GTF2H4 (general transcription factor IIH subunit 4)", "technical replicate": "3", "viability, normalised (%)": 67, "outcome": "active"}
{"gene": "GTF2H4 (general transcription factor IIH subunit 4)", "technical replicate": "3", "viability, normalised (%)": 53.7, "outcome": "active"}
{"gene": "CRY2 (cryptochrome circadian regulator 2)", "technical replicate": "1", "viability, normalised (%)": 91.8, "outcome": "inactive"}
{"gene": "CRY2 (cryptochrome circadian regulator 2)", "technical replicate": "2", "viability, normalised (%)": 102, "outcome": "inactive"}
{"gene": "CRY2 (cryptochrome circadian regulator 2)", "technical replicate": "3", "viability, normalised (%)": 86.9, "outcome": "inactive"}
{"gene": "DTX3L (deltex E3 ubiquitin ligase 3L)", "technical replicate": "1", "viability, normalised (%)": 62, "outcome": "active"}
{"gene": "DTX3L (deltex E3 ubiquitin ligase 3L)", "technical replicate": "2", "viability, normalised (%)": 54.4, "outcome": "active"}
{"gene": "DTX3L (deltex E3 ubiquitin ligase 3L)", "technical replicate": "3", "viability, normalised (%)": 65.5, "outcome": "active"}
{"gene": "ACTL6B (actin like 6B)", "technical replicate": "1", "viability, normalised (%)": 71.6, "outcome": "active"}
{"gene": "ACTL6B (actin like 6B)", "technical replicate": "2", "viability, normalised (%)": 66.6, "outcome": "active"}
{"gene": "ACTL6B (actin like 6B)", "technical replicate": "3", "viability, normalised (%)": 54.6, "outcome": "active"}
{"gene": "RPS6KA3 (ribosomal protein S6 kinase A3)", "technical replicate": "1", "viability, normalised (%)": 134, "outcome": "inactive"}
{"gene": "RPS6KA3 (ribosomal protein S6 kinase A3)", "technical replicate": "2", "viability, normalised (%)": 117, "outcome": "inactive"}
{"gene": "RPS6KA3 (ribosomal protein S6 kinase A3)", "technical replicate": "3", "viability, normalised (%)": 127, "outcome": "inactive"}
{"gene": "MPHOSPH8 (M-phase phosphoprotein 8)", "technical replicate": "1", "viability, normalised (%)": 67.9, "outcome": "active"}
{"gene": "MPHOSPH8 (M-phase phosphoprotein 8)", "technical replicate": "2", "viability, normalised (%)": 61, "outcome": "active"}
{"gene": "MPHOSPH8 (M-phase phosphoprotein 8)", "technical replicate": "3", "viability, normalised (%)": 63.5, "outcome": "active"}
{"gene": "NOG (noggin)", "technical replicate": "1", "viability, normalised (%)": 32.9, "outcome": "active"}
{"gene": "NOG (noggin)", "technical replicate": "2", "viability, normalised (%)": 45.5, "outcome": "active"}
{"gene": "NOG (noggin)", "technical replicate": "3", "viability, normalised (%)": 44.1, "outcome": "active"}
{"gene": "HASPIN (histone H3 associated protein kinase)", "technical replicate": "1", "viability, normalised (%)": 59.2, "outcome": "active"}
{"gene": "HASPIN (histone H3 associated protein kinase)", "technical replicate": "1", "viability, normalised (%)": 55.2, "outcome": "active"}
{"gene": "HASPIN (histone H3 associated protein kinase)", "technical replicate": "1", "viability, normalised (%)": 68.6, "outcome": "active"}
{"gene": "HASPIN (histone H3 associated protein kinase)", "technical replicate": "2", "viability, normalised (%)": 66.8, "outcome": "active"}
{"gene": "HASPIN (histone H3 associated protein kinase)", "technical replicate": "2", "viability, normalised (%)": 59.6, "outcome": "active"}
{"gene": "HASPIN (histone H3 associated protein kinase)", "technical replicate": "2", "viability, normalised (%)": 64.4, "outcome": "active"}
{"gene": "HASPIN (histone H3 associated protein kinase)", "technical replicate": "3", "viability, normalised (%)": 71.9, "outcome": "active"}
{"gene": "HASPIN (histone H3 associated protein kinase)", "technical replicate": "3", "viability, normalised (%)": 77.1, "outcome": "active"}
{"gene": "HASPIN (histone H3 associated protein kinase)", "technical replicate": "3", "viability, normalised (%)": 74.2, "outcome": "active"}
{"gene": "CHMP2B (charged multivesicular body protein 2B)", "technical replicate": "1", "viability, normalised (%)": 74.6, "outcome": "active"}
{"gene": "CHMP2B (charged multivesicular body protein 2B)", "technical replicate": "2", "viability, normalised (%)": 87.5, "outcome": "inactive"}
{"gene": "CHMP2B (charged multivesicular body protein 2B)", "technical replicate": "3", "viability, normalised (%)": 74.7, "outcome": "active"}

5 entries from above, reformatted.
gene	technical replicate	viability, normalised (%)	outcome
GTF2H4 (general transcription factor IIH subunit 4)	3	67	active
GTF2H4 (general transcription factor IIH subunit 4)	3	53.7	active
CRY2 (cryptochrome circadian regulator 2)	1	91.8	inactive
CRY2 (cryptochrome circadian regulator 2)	2	102	inactive
CRY2 (cryptochrome circadian regulator 2)	3	86.9	inactive
